PubChem BioAssay AID1508597 | Cure First, 2020
Aim: 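Knock-downs altering ovarian cancer cell survival with or without PARP inhibitor rucaparib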 (primary screen). Cell system: human ovarian carcinoma lines grown from tumours: OCI-P5x (papillary serous) and OCI-C5x (clear cell). Reagent: siRNA pool against human genes, 1.25 pmol siRNA per well. Timing: 72 h or 96 h, depending on the cell culture. Conditions: rucaparib 20 µM (about IC30) or vehicle, present until read-out. Read-out: 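Luminescent ATP-based viability assay read 72 or 96 h after transfection, depending on culture, given as normalised percent viability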. Scale: viability, normalised: higher = more viable cells remaining. Hit rule: 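a well counts as a hit if its normalised viability is under 80 percent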. Calls: active = viability under 80%; inactive = viability 80% or more.
The deposit covers about 2,100 reagents; below is a part drawn at random. 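Calls flag viability under 80% in either arm, not effects specific to rucaparib; the reference for percent is not stated.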 Reagent sequences are not shown. The record does not give: the 100% reference.

| gene knocked down | rucaparib or vehicle | cell line | technical replicate | viability, normalised (%) | Outcome |
| --- | --- | --- | --- | --- | --- |
| PLK1 | Rucaparib | OCI-C5x (clear cell) | 1 | 40.7 | active |
| PLK1 | Rucaparib | OCI-C5x (clear cell) | 2 | 28.4 | active |
| PLK1 | Rucaparib | OCI-C5x (clear cell) | 3 | 29.2 | active |
| PLK1 | Rucaparib | OCI-P5x (serous) | 1 | 28 | active |
| PLK1 | Rucaparib | OCI-P5x (serous) | 2 | 33 | active |
| PLK1 | Rucaparib | OCI-P5x (serous) | 3 | 34.5 | active |
| PLK1 | Vehicle | OCI-C5x (clear cell) | 1 | 33 | active |
| PLK1 | Vehicle | OCI-C5x (clear cell) | 2 | 33 | active |
| PLK1 | Vehicle | OCI-C5x (clear cell) | 3 | 33.8 | active |
| PLK1 | Vehicle | OCI-P5x (serous) | 1 | 33.7 | active |
| PLK1 | Vehicle | OCI-P5x (serous) | 2 | 31.9 | active |
| PLK1 | Vehicle | OCI-P5x (serous) | 3 | 55.7 | active |
| AK5 | Rucaparib | OCI-C5x (clear cell) | 1 | 62.1 | active |
| AK5 | Rucaparib | OCI-C5x (clear cell) | 2 | 65.1 | active |
| AK5 | Rucaparib | OCI-C5x (clear cell) | 3 | 34 | active |
| AK5 | Rucaparib | OCI-P5x (serous) | 1 | 95 | inactive |
| AK5 | Rucaparib | OCI-P5x (serous) | 2 | 95.5 | inactive |
| AK5 | Rucaparib | OCI-P5x (serous) | 3 | 102 | inactive |
| AK5 | Vehicle | OCI-C5x (clear cell) | 1 | 49.9 | active |
| AK5 | Vehicle | OCI-C5x (clear cell) | 2 | 34.4 | active |
| AK5 | Vehicle | OCI-C5x (clear cell) | 3 | 38.2 | active |
| AK5 | Vehicle | OCI-P5x (serous) | 1 | 64.2 | active |
| AK5 | Vehicle | OCI-P5x (serous) | 2 | 62.2 | active |
| AK5 | Vehicle | OCI-P5x (serous) | 3 | 69.2 | active |

3 entries already listed, ordered by “viability, normalised (%)”, descending.
| gene knocked down | rucaparib or vehicle | cell line | technical replicate | viability, normalised (%) | Outcome |
| --- | --- | --- | --- | --- | --- |
| PLK1 | Vehicle | OCI-P5x (serous) | 3 | 55.7 | active |
| PLK1 | Vehicle | OCI-P5x (serous) | 1 | 33.7 | active |
| PLK1 | Vehicle | OCI-P5x (serous) | 2 | 31.9 | active |
